Data published in PubChem BioAssay AID493014 (National Center for Advancing Translational Sciences (NCATS), 2011).
The list shows a part of the results. Shown are side measurements of this screen, not its main read-out; they come without a call. Compounds called inactive in the main read-out are mostly missing here. The note in brackets gives the kind of curve behind each potency; many fits are weak.

Assay: qHTS Assay to Find Inhibitors of Chronic Active B-Cell Receptor Signaling
Details: ABC-DLBCL IkBa-CBG/CBR reporter, luminescence ratio (green luciferase fused to IkBa over red control in TMD8 lymphoma cells), 4 h
How it was run: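 Concentration-response series (up to 46 uM) were applied to TMD8 dual-reporter cells for 4 h at 37C with doxycycline. Green/red ratio, after filter-overlap correction, defined %Activity; red signal alone was normalised to basal cells and zero luminescence.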

[1] = measured here: CBR red luminescence, cell number
[2] = measured here: IkBa-CBG green luminescence

SMILES	AC50 [1]	AC50 [2]
O=C(CCCCCN1C(=O)c2cccc3cccc(c23)C1=O)NCCO	28.2 µM [falling, single point]	
CCn1c2ccccc2c2cc(NC(=O)c3ccc([N+](=O)[O-])cc3)ccc21	2.06 µM [rising, partial curve, poor fit]	
Cc1cc(C(=O)CCl)c(C)n1-c1cccc(S(=O)(=O)N2CCOCC2)c1	11.2 µM [falling, partial curve]	
Cc1c(C=O)c(C=O)c(C)n1Cc1ccccc1	16.4 µM [falling, partial curve]	20.6 µM [rising, partial curve, poor fit]
C=CCNc1nc(-c2ccc(O)c(C(N)=O)c2)cs1	0.411 µM [rising, full curve, poor fit]	
Cc1ccc(S(=O)(=O)Nc2ccc(S(=O)(=O)Nc3cc(C)nc(C)n3)cc2)cc1	35.5 µM [rising, single point]	
S=C(c1ccc(-c2ccccc2Cl)o1)N1CCCCC1	18.4 µM [rising, single point]	23.1 µM [rising, partial curve, poor fit]
CCCCNc1c(-c2ccc(-c3ccc(OC)cc3)c(OC)c2)nc2ccccn12	29.1 µM [falling, single point]	
CC(=O)c1c(COC(=O)c2ccccc2)nc2ccccc2[n+]1[O-]	14.6 µM [rising, single point]	
Cc1cc([N+](=O)[O-])cc(/C=N/n2c(C)nc3ccccc3c2=O)c1O	0.447 µM [falling, full curve, poor fit]	
O=C(Cn1cnc2cc([N+](=O)[O-])ccc2c1=O)Nc1ccccc1Cl	3.98 µM [falling, partial curve, poor fit]	
CN1CCN(c2nc(-c3cccnc3)nc3scc(-c4ccccc4)c23)CC1	1.26 µM [rising, full curve, poor fit]	
CCOc1ccc(NC(=O)Cn2cc(C(=O)CC)c3ccccc32)cc1	0.1 µM [rising, full curve, poor fit]	
CC(=O)/C(=N/Nc1ccc(Br)cc1)N1CCCc2ccccc21		35.5 µM [rising, partial curve, poor fit]
O=C(CSc1nnc(-c2ccc(F)cc2)c2ccccc12)Nc1c(F)cccc1F	29.1 µM [falling, single point]	
O=C(N/N=C/c1cc(Br)c(Br)o1)C(O)c1ccccc1 (stereo unspecified)	20.6 µM [falling, single point]	
C=C1C(O)[C@@H]2O[C@]3(CC[C@H](/C=C/C(C)[C@@H]4CC(C)=CC5(O[C@H](C[C@@](C)(O)CO)CCC5O)O4)O3)CC[C@H]2O[C@@H]1C(O)CC(C)[C@H]1OC2(CCCCO2)CCC1C (stereo partly specified)	0.92 µM [rising, full curve, poor fit]	2.31 µM [falling, partial curve]
O=C(NC(=S)Nc1cccnc1Cl)c1ccc(Cl)cc1	2.51 µM [falling, full curve, poor fit]	
COc1ccccc1CNS(=O)(=O)c1ccc2c(c1)N(C(C)=O)CCO2	35.5 µM [falling, single point]	

Looked up above.
Entry of CCOc1ccc(NC(=O)Cn2cc(C(=O)CC)c3ccccc32)cc1 under AC50 [1]: 0.1 µM [rising, full curve, poor fit]
Entry of O=C(Cn1cnc2cc([N+](=O)[O-])ccc2c1=O)Nc1ccccc1Cl under AC50 [1]: 3.98 µM [falling, partial curve, poor fit]

Next part

SMILES	AC50 [1]	AC50 [2]
O=C(Nc1ccc(N2CCOCC2)c(Cl)c1)c1cc2ccccc2o1	16.4 µM [falling, single point]	
O=Cc1ccc(-c2ccccc2OC(F)(F)F)o1	2.91 µM [rising, single point]	
Cc1ccnc(NC(=O)c2ccc(S(=O)(=O)c3ccccc3)cc2)c1	3.55 µM [falling, partial curve, poor fit]	
Cc1cccc(N2CCN(S(=O)(=O)c3ccc4c(c3)NC(=O)C(C)S4)CC2)c1C (stereo unspecified)	12.6 µM [falling, single point]	
CCOC(=O)c1c(NC(=O)COC(=O)c2ccc(Cl)nc2)sc(C(=O)N(C)C)c1C	1.84 µM [rising, full curve, poor fit]	
CC(C)CNC(=O)NC(=O)COC(=O)c1cccc(NS(=O)(=O)c2ccc(F)c(F)c2)c1	11.6 µM [falling, partial curve, poor fit]	
Cc1c(C(=O)O)oc2c3c(ccc12)OCCO3		13 µM [rising, partial curve, poor fit]
COc1ccc(CCn2c(N)c(C(=O)NCc3ccco3)c3nc4ccccc4nc32)cc1	23.1 µM [falling, single point]	
O=c1[nH]cnc2c1sc1nc3c(c(-c4ccc(Cl)cc4)c12)CCC3	0.103 µM [rising, full curve, poor fit]	
Oc1cccc(Nc2c3ccccc3nc3ccccc23)c1	35.5 µM [falling, single point]	
Cc1cc2nc3c(=O)[nH]c(=S)[nH]c3nc2cc1NC(=O)C(F)(F)F	2 µM [falling, full curve, poor fit]	
CC1CCCCC1NC(=O)c1ccc(N2CCCC2=O)cc1 (stereo unspecified)	18.4 µM [falling, partial curve, poor fit]	
O=C(Nc1cccc(C(=O)Nc2ccc(F)cc2F)c1)c1ccccc1	11.2 µM [falling, partial curve, poor fit]	
COc1ccc(CNC(=O)C[C@H]2C[C@H](C(=O)N(C(C)C)C(C)C)[C@@]3(C)c4[nH]c5cc(CCC(=O)N(C)C)ccc5c4CCN3C2=O)cc1OC	32.6 µM [rising, single point]	
Cc1c(C(=O)Nc2cccnc2)oc2ccc(Br)cc12	2.51 µM [rising, full curve]	
CCCCN(CC)CCCNC(=O)c1ccc(CSc2nc3ccncc3[nH]2)cc1	35.5 µM [falling, single point]	
Cc1ccc(-n2nnc3c(SCC(=O)NCc4ccco4)ncnc32)cc1	10.3 µM [falling, partial curve]	
C1COC(NC(C2CC2)C2CC2)=N1	25.9 µM [falling, partial curve]	
Cn1nnnc1Sc1ncnc2scc(-c3ccc[nH]3)c12	23.1 µM [falling, single point]	
